In assay [1] the target is HIS-tagged human TNF receptor intracellular domain (TNFRicd) (human) (UniProt P19438). The assay can be described thus: in vitro binding assay of recombinant proteins (FIG. 15A).
Assay [2] has the same target. The assay can be described thus: in vitro binding assay of recombinant proteins (FIG. 8E).

Amino acid sequences for entries named in this document (tags omitted). Residues count along the entry.
UniProt P19438, residues 235-455: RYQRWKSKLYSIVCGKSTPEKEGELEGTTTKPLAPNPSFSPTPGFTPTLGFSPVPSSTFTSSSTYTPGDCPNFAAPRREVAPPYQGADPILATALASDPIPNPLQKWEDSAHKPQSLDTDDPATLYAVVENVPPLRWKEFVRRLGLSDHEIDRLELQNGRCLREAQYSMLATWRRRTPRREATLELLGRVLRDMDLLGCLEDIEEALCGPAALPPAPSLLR
UniProt Q60749: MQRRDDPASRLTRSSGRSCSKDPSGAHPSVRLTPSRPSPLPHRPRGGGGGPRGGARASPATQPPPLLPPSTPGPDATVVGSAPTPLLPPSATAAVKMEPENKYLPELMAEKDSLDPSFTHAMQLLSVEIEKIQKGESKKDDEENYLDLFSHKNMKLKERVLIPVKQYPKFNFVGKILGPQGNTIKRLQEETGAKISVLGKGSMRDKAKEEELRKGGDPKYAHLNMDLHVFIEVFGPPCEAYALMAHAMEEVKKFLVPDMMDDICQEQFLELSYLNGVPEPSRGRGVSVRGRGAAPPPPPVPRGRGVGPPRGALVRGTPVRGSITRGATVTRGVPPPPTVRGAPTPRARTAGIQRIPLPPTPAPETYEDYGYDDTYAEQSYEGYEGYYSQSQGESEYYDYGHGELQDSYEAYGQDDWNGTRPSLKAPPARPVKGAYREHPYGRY

These are yes or no findings as the source states them, for the method shown. Some entries that bind do so weakly or less than the wild type.

With “recombinant GST-tagged mouse Sam68 (from UniProt Q60749 1-443)”, the binding result in assay [1] and in assay [2] was “binds” throughout.

The values above are taken from patent publication US20120121608A1 (CALIFORNIA INSTITUTE OF TECHNOLOGY, published 2012).
